Structures were worked out from names or drawings and are uncertain.
Biological target: Tie-2 (Homo sapiens, UniProt Q02763)
Test: Tie-2 tyrosine kinase activity assay (luciferase/luciferin ATP consumption with pEY substrate, or 33P-ATP incorporation)
Conditions: read-out: IC50 Tie-2; human enzyme Tie-2

Chains of the proteins cited; added tags and fusions are not shown. Residues count along the entry.
UniProt Q02763, 23-1124 limits assumed: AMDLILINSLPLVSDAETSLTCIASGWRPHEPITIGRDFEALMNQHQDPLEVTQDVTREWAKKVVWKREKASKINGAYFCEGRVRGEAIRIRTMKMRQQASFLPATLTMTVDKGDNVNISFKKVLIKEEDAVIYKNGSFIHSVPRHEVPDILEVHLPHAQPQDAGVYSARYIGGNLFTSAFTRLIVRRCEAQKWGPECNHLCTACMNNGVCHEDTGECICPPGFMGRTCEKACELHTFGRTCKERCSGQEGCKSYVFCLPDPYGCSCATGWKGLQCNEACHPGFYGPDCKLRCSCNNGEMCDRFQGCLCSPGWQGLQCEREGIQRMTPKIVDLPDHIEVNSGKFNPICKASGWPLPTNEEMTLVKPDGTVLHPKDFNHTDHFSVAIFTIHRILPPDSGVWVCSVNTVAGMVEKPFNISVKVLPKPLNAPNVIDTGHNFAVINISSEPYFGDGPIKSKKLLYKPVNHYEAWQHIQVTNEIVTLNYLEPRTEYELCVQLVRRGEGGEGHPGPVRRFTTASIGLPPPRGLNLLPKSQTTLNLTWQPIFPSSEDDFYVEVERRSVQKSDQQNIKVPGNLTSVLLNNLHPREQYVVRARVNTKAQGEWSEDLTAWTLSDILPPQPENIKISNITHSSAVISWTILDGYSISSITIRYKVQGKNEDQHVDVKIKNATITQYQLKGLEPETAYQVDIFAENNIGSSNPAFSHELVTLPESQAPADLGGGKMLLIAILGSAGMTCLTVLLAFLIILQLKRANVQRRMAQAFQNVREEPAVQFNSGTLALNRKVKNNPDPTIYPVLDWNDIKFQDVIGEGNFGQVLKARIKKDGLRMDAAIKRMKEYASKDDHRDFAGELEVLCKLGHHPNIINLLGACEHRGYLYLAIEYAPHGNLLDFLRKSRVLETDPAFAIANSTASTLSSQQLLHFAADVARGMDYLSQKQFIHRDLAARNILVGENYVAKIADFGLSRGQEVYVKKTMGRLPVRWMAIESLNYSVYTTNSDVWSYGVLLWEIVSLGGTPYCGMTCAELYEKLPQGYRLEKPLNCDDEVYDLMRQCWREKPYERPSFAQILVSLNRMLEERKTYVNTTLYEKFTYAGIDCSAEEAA

Row | IC50 | Structure (SMILES)
1 | 50 to 1000 nM | CCc1cccc(NC(=O)N2CCN(c3nsnc3OCc3ccnc(N)c3)CC2)c1
2 | 50 to 1000 nM | O=C(Nc1cc(C(F)(F)F)cc(C(F)(F)F)c1)N1CCN(c2nccnc2OCc2ccnc(Br)c2)CC1
